# From the supplement of paper PMC8728848
# This is one part of the list.
# Legend:
# Test in all cases: glycan array binding signal (z-score within array); higher = stronger binding
# Conditions in all cases: glycan notation: IUPAC condensed, linker removed
# [1] = molecular target: Fuc(a1-2)Gal(b1-4)GlcNAc(b1-3)Gal(b1-4)GlcNAc(b1-2)Man(a1-3)[Fuc(a1-2)Gal(b1-4)GlcNAc(b1-3)Gal(b1-4)GlcNAc(b1-2)Man(a1-6)]Man(b1-4)GlcNAc(b1-4)GlcNAc
# How it was run: (§1)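 Glycan array binding is given as a within-array Z-score, which can be read as non-binding when negative. The arrays, 3228 of them, came from the Consortium for Functional Glycomics database and were retained only where the protein sequence was available. Z-scores were averaged across arrays of the same protein sequence at different concentrations or buffers and across linkers.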
# [2] = molecular target: Fuc(a1-2)Gal(b1-4)GlcNAc(b1-3)Gal(b1-4)GlcNAc(b1-3)Gal(b1-4)GlcNAc
# How it was run: as §1
# [3] = molecular target: Fuc(a1-2)Gal(b1-4)GlcNAc(b1-3)GalNAc
# How it was run: as §1
# [4] = molecular target: Fuc(a1-2)Gal(b1-4)GlcNAc(b1-3)[Fuc(a1-2)Gal(b1-4)GlcNAc(b1-6)]GalNAc
# How it was run: as §1
# [5] = molecular target: Fuc(a1-2)Gal(b1-4)GlcNAc(b1-3)[Fuc(a1-3)[Gal(b1-4)]GlcNAc(b1-6)]Gal(b1-4)Glc
# How it was run: as §1
# [6] = molecular target: Fuc(a1-2)Gal(b1-4)GlcNAc(b1-6)GalNAc
# How it was run: as §1
# [7] = molecular target: Fuc(a1-2)Gal(b1-4)GlcNAc6S
# How it was run: as §1
# [8] = molecular target: Fuc(a1-2)Gal(b1-4)[Fuc(a1-3)]GlcNAc
# How it was run: as §1
# [9] = molecular target: Fuc(a1-2)Gal(b1-4)[Fuc(a1-3)]GlcNAc(b1-2)Man(a1-3)[Fuc(a1-2)Gal(b1-4)[Fuc(a1-3)]GlcNAc(b1-2)Man(a1-6)]Man(b1-4)GlcNAc(b1-4)[Fuc(a1-6)]GlcNAc
# How it was run: as §1
# [10] = molecular target: Fuc(a1-2)Gal(b1-4)[Fuc(a1-3)]GlcNAc(b1-2)[Fuc(a1-2)Gal(b1-4)[Fuc(a1-3)]GlcNAc(b1-4)]Man(a1-3)[Fuc(a1-2)Gal(b1-4)[Fuc(a1-3)]GlcNAc(b1-2)Man(a1-6)]Man(b1-4)GlcNAc(b1-4)GlcNAc
# How it was run: as §1
# [11] = molecular target: Fuc(a1-2)Gal(b1-4)[Fuc(a1-3)]GlcNAc(b1-3)Gal(b1-4)[Fuc(a1-3)]GlcNAc
# How it was run: as §1
# [12] = molecular target: Fuc(a1-2)Gal(b1-4)[Fuc(a1-3)]GlcNAc(b1-3)Gal(b1-4)[Fuc(a1-3)]GlcNAc(b1-3)Gal(b1-4)[Fuc(a1-3)]GlcNAc
# How it was run: as §1
# [13] = molecular target: Fuc(a1-2)Gal(b1-4)[Fuc(a1-3)]GlcNAc(b1-3)GalNAc
# How it was run: as §1
# [14] = molecular target: Fuc(a1-2)Gal(b1-4)[Fuc(a1-3)]GlcNAc(b1-3)[Neu5Ac(a2-6)Gal(b1-4)GlcNAc(b1-6)]Gal(b1-4)Glc
# How it was run: as §1
# [15] = molecular target: Fuc(a1-2)Gal3S(b1-4)GlcNAc
# How it was run: as §1
# [16] = molecular target: Fuc(a1-2)Gal6S(b1-3)GlcNAc
# How it was run: as §1
# [17] = molecular target: Fuc(a1-2)Gal6S(b1-3)GlcNAc6S
# How it was run: as §1
# [18] = molecular target: Fuc(a1-2)Gal6S(b1-4)Glc
# How it was run: as §1
# [19] = molecular target: Fuc(a1-2)Gal6S(b1-4)Glc6S
# How it was run: as §1
# [20] = molecular target: Fuc(a1-2)[Gal(a1-3)]Gal
# How it was run: as §1
# [21] = molecular target: Fuc(a1-2)[Gal(a1-3)]Gal(b1-3)GalNAc
# How it was run: as §1
# [22] = molecular target: Fuc(a1-2)[Gal(a1-3)]Gal(b1-3)GalNAc(b1-3)Gal(a1-4)Gal(b1-4)Glc
# How it was run: as §1
# [23] = molecular target: Fuc(a1-2)[Gal(a1-3)]Gal(b1-3)GlcNAc
# How it was run: as §1
# [24] = molecular target: Fuc(a1-2)[Gal(a1-3)]Gal(b1-3)GlcNAc(b1-2)Man(a1-3)[Fuc(a1-2)[Gal(a1-3)]Gal(b1-3)GlcNAc(b1-2)Man(a1-6)]Man(b1-4)GlcNAc(b1-4)GlcNAc
# How it was run: as §1
# [25] = molecular target: Fuc(a1-2)[Gal(a1-3)]Gal(b1-3)GlcNAc(b1-2)Man(a1-3)[Fuc(a1-2)[Gal(a1-3)]Gal(b1-3)GlcNAc(b1-2)Man(a1-6)]Man(b1-4)GlcNAc(b1-4)[Fuc(a1-6)]GlcNAc
# How it was run: as §1
# [26] = molecular target: Fuc(a1-2)[Gal(a1-3)]Gal(b1-3)GlcNAc(b1-3)GalNAc
# How it was run: as §1
# [27] = molecular target: Fuc(a1-2)[Gal(a1-3)]Gal(b1-3)GlcNAc(b1-6)GalNAc
# How it was run: as §1
# [28] = molecular target: Fuc(a1-2)[Gal(a1-3)]Gal(b1-4)Glc
# How it was run: as §1
# [29] = molecular target: Fuc(a1-2)[Gal(a1-3)]Gal(b1-4)GlcNAc
# How it was run: as §1
# [30] = molecular target: Fuc(a1-2)[Gal(a1-3)]Gal(b1-4)GlcNAc(b1-2)Man
# How it was run: as §1
binder,measurement,setting,value
"AT1G80310(18) (Arabidopsis thaliana), Q0WP36 (protein) METTTTPLLPGDRSRCGWLRRRLRLKNPLSSELSGAVGDLGTFIPIVLTLTLVSNLDLSTTLIFTGFYNIATGLLFDIPMPVQPMKSIAAVAVSESPHLTPSQIAAAGASTAATLLLLGATGAMSFLYNIIPLPVVRGVQLSQGLQFAFTAIKYVRFNYDTATLKPSSSPRIWLGLDGLILALAALLFIILSTGSGNDREAEDGDLAETSSNESQSRRRRLRLLSSIPSALIVFALGLVLCFIRDPSIFKDLKFGPSKFHILRISWDDWKIGFLRAAIPQIPLSVLNSVIAVCKLSNDLFDKELSATTVSISVGVMNLIGCWFGAMPVCHGAGGLAGQYRFGARSGLSVIFLGIGKLIVGLVFGNSFVRILSQFPIGILGVLLLFAGIELAMASKDMNSKEDSFIMLVCAAVSMTGSSAALGFGCGVVLYLLLKLRTLDCSSVTLFSRSSDESQVDSEAAPRDV",glycan array binding signal (z-score),[1],-0.895
same,glycan array binding signal (z-score),[2],-0.682
same,glycan array binding signal (z-score),[3],-0.108
same,glycan array binding signal (z-score),[4],0.42
same,glycan array binding signal (z-score),[5],0.009
same,glycan array binding signal (z-score),[6],-0.777
same,glycan array binding signal (z-score),[7],-0.914
same,glycan array binding signal (z-score),[8],-0.396
same,glycan array binding signal (z-score),[9],0.455
same,glycan array binding signal (z-score),[10],-0.219
same,glycan array binding signal (z-score),[11],-0.776
same,glycan array binding signal (z-score),[12],0.554
same,glycan array binding signal (z-score),[13],0.061
same,glycan array binding signal (z-score),[14],0.312
same,glycan array binding signal (z-score),[15],-0.402
same,glycan array binding signal (z-score),[16],-0.426
same,glycan array binding signal (z-score),[17],-0.253
same,glycan array binding signal (z-score),[18],0.666
same,glycan array binding signal (z-score),[19],0.09
same,glycan array binding signal (z-score),[20],0.01
same,glycan array binding signal (z-score),[21],-0.789
same,glycan array binding signal (z-score),[22],-0.21
same,glycan array binding signal (z-score),[23],2.6
same,glycan array binding signal (z-score),[24],-0.019
same,glycan array binding signal (z-score),[25],-0.31
same,glycan array binding signal (z-score),[26],-0.354
same,glycan array binding signal (z-score),[27],1.91
same,glycan array binding signal (z-score),[28],0.522
same,glycan array binding signal (z-score),[29],-0.409
same,glycan array binding signal (z-score),[30],-0.355

# Shown bar-delimited: part of the list above
binder | measurement | setting | value
AT1G80310(18) (Arabidopsis thaliana), Q0WP36 (protein) METTTTPLLPGDRSRCGWLRRRLRLKNPLSSELSGAVGDLGTFIPIVLTLTLVSNLDLSTTLIFTGFYNIATGLLFDIPMPVQPMKSIAAVAVSESPHLTPSQIAAAGASTAATLLLLGATGAMSFLYNIIPLPVVRGVQLSQGLQFAFTAIKYVRFNYDTATLKPSSSPRIWLGLDGLILALAALLFIILSTGSGNDREAEDGDLAETSSNESQSRRRRLRLLSSIPSALIVFALGLVLCFIRDPSIFKDLKFGPSKFHILRISWDDWKIGFLRAAIPQIPLSVLNSVIAVCKLSNDLFDKELSATTVSISVGVMNLIGCWFGAMPVCHGAGGLAGQYRFGARSGLSVIFLGIGKLIVGLVFGNSFVRILSQFPIGILGVLLLFAGIELAMASKDMNSKEDSFIMLVCAAVSMTGSSAALGFGCGVVLYLLLKLRTLDCSSVTLFSRSSDESQVDSEAAPRDV | glycan array binding signal (z-score) | [21] | -0.789
same | glycan array binding signal (z-score) | [22] | -0.21
